Results: paper PMC3812651
These are yes or no findings as the source states them, for the method shown. In cells and extracts the contact can be indirect. Some results given as binding are weak or reduced against the parent protein; the word gives no strength.

Sequences of proteins named here, by UniProt entry; tags and fusion partners are left off. A change or cut given only in a name is not applied to a line headed by its entry.
UniProt Q8N6T7: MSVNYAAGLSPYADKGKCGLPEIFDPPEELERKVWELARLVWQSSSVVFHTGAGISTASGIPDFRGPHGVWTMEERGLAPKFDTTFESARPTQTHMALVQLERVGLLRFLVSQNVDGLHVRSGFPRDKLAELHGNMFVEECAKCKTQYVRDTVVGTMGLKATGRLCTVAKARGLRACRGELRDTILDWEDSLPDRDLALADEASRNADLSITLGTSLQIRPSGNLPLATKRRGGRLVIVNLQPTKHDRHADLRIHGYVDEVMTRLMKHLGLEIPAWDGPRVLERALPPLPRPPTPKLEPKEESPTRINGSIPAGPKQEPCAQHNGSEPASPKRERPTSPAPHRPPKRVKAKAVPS
UniProt Q13283: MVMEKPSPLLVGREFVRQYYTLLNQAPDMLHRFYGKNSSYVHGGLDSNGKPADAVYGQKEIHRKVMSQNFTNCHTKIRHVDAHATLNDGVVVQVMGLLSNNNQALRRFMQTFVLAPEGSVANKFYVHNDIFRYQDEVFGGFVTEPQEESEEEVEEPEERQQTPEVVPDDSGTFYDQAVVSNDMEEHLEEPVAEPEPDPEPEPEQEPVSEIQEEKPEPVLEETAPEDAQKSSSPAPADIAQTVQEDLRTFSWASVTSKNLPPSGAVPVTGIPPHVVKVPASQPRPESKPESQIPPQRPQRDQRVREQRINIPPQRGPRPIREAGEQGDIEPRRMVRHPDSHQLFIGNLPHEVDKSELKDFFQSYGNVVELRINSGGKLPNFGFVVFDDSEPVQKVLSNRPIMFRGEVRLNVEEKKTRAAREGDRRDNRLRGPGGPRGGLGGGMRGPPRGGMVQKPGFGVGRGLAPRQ

Legend:
[1] = target: endogenous SIRT6 (human cells) (human (endogenous in 293T)) (UniProt Q8N6T7); test: co-IP; endogenous SIRT6 IP from 293 (293T) cell lysate in RIPA buffer (50 mM TrisHCl pH7.4, 150 mM NaCl, 2 mM EDTA, 1% NP-40, 0.1% SDS), western
[2] = target: Flag-tagged SIRT6, wild type, expressed in 293T (293) cells (UniProt Q8N6T7); test: co-IP; FLAG-SIRT6 (wild type and mutants) IP from 293 cell lysate in RIPA buffer (50 mM TrisHCl pH7.4, 150 mM NaCl, 2 mM EDTA, 1% NP-40, 0.1% SDS), western
[3] = target: 3X-Flag-tagged SIRT6 mutant G60A (UniProt Q8N6T7); test: as above
[4] = target: SIRT6 with a C-terminal FLAG tag, stably expressed in HeLa S3 cells (UniProt Q8N6T7); test: co-IP; SIRT6-FLAG IP from HeLa nuclear extract, western for G3BP1; also after DNAse and RNAse treatment of the nuclear extract and at 1 M NaCl
[5] = target: SIRT6 with a C-terminal FLAG tag, stably expressed in HeLa S3 cells (UniProt Q8N6T7); test: co-IP; SIRT6-FLAG IP from cytoplasmic (S100), nuclear extract (NE) and chromatin enriched (P3) fractions, western for G3BP1

Measured: binding

G3BP1 (GTPase Activating Protein Binding Protein 1), endogenous in human cells (from UniProt Q13283 1-466)
binds: all assays above
